Source: PubChem BioAssay AID1259405 (NCATS, 2018)
Shown is an unselected part of about 50,000 deposited reagents. About 4,000 of them (8%) count as active. 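Mouse siRNA library applied to hamster cells; one well for each siRNA.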 A number with no mark means an inactive call. Reagents against one gene are numbered here. Reagent sequences are not shown.

Screen: 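Knock-downs that lift recombinant protein yield in hamster ovary cells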 (primary screen)
System: Chinese hamster CHO-K1 ovary cells with stable secreted eGFP expression
Reagents: single siRNA against mouse genes, 0.8 pmol siRNA per well (2 µl of 400 nM stock)
Timing: 3 days
Measurement: 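Percent of the per-plate non-targeting control median for intracellular GFP per well by laser scanning cytometry and for cell viability by ATP luminescence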
Reading the numbers: GFP, % of control: higher = more GFP per well, higher productivity; viability (ATP), % of control: higher = more viable cells (more ATP)
Rule for the call: 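a knock-down is called active if GFP reaches 120% or more of non-targeting control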

Knock-down of Krtap4-2 (GeneID 68673) #1 resulted in: GFP, % of control 49.8; viability (ATP), % of control 58.
Silencing of Krtap4-2 (GeneID 68673) #2 gave: GFP, % of control 67.7; viability (ATP), % of control 83.5.
With knock-down of Krtap4-2 (GeneID 68673) #3, the record shows GFP, % of control 64.4; viability (ATP), % of control 90.3.
Depletion of Crlf3 (GeneID 54394) #1 gave: GFP, % of control 71.4; viability (ATP), % of control 82.
Crlf3 (GeneID 54394) #2 gave GFP, % of control 96.3; viability (ATP), % of control 71.3.
With knock-down of Crlf3 (GeneID 54394) #3, the screen gave GFP, % of control 110; viability (ATP), % of control 114.
After knock-down of Huwe1 (GeneID 59026) #1, the record shows GFP, % of control 57.3; viability (ATP), % of control 89.9.
Huwe1 (GeneID 59026) #2 scored GFP, % of control 72.1; viability (ATP), % of control 56.5.
Depletion of Huwe1 (GeneID 59026) #3 gave: GFP, % of control 111; viability (ATP), % of control 45.8.
Fli1 (GeneID 14247) #1 showed GFP, % of control 68.7; viability (ATP), % of control 75.3.
Knock-down of Fli1 (GeneID 14247) #2 came out at: GFP, % of control 101; viability (ATP), % of control 86.9.
For Fli1 (GeneID 14247) #3, the values are GFP, % of control 83.6; viability (ATP), % of control 106.
Silencing of Tgfa (GeneID 21802) #1 came out at: GFP, % of control 60.3; viability (ATP), % of control 93.1.
Against Tgfa (GeneID 21802) #2, the values are GFP, % of control 73; viability (ATP), % of control 86.2.
9530091C08Rik (GeneID 320440) #1 showed GFP, % of control 68.9; viability (ATP), % of control 72.4.
After knock-down of 9530091C08Rik (GeneID 320440) #2, the record shows GFP, % of control 69; viability (ATP), % of control 75.1.
Against 9530091C08Rik (GeneID 320440) #3, the values are GFP, % of control 81.3; viability (ATP), % of control 87.6.
Depletion of Sfxn1 (GeneID 14057) #1 resulted in: GFP, % of control 88.9; viability (ATP), % of control 88.9.
Sfxn1 (GeneID 14057) #2 scored GFP, % of control 37.9; viability (ATP), % of control 66.2.
Knock-down of Sfxn1 (GeneID 14057) #3 gave: GFP, % of control 110; viability (ATP), % of control 99.
Knock-down of Cldn3 (GeneID 12739) #1 gave: GFP, % of control 81.5; viability (ATP), % of control 42.9.
Against Cldn3 (GeneID 12739) #2 the deposit lists GFP, % of control 98.1; viability (ATP), % of control 93.8.
For Cldn3 (GeneID 12739) #3 the deposit lists GFP, % of control 125 (active); viability (ATP), % of control 94.8.
Ddx60 (GeneID 234311) #1 showed GFP, % of control 54.8; viability (ATP), % of control 38.8.
Silencing of Ddx60 (GeneID 234311) #2 gave: GFP, % of control 103; viability (ATP), % of control 94.5.
Ddx60 (GeneID 234311) #3 gave GFP, % of control 47.5; viability (ATP), % of control 73.
After knock-down of Ppp1r17 (GeneID 19051) #1, the record shows GFP, % of control 38.1; viability (ATP), % of control 52.6.
Depletion of Ppp1r17 (GeneID 19051) #2 came out at: GFP, % of control 81.6; viability (ATP), % of control 61.5.
Ppp1r17 (GeneID 19051) #3 showed GFP, % of control 71.9; viability (ATP), % of control 79.2.

Ordered by “GFP, % of control” (lowest first): some entries from above.
Sfxn1 (GeneID 14057) #2 | GFP, % of control = 37.9; viability (ATP), % of control = 66.2
Sfxn1 (GeneID 14057) #3 | GFP, % of control = 110; viability (ATP), % of control = 99
